Earlier results as cited in US20170319563A1, “STEROID-FREE DISEASE MANAGEMENT” (Asana BioSciences, LLC, priority 2014, published 2017).
For at least one compound, name, drawing or mass did not settle the structure.

Key:
[1] = system: testosterone biosynthesis; conditions: human adrenal NCI-H295R cells; FDA Pharmacology Review; cited from earlier work
[2] = system: cortisol biosynthesis; conditions: human adrenal NCI-H295R cells; FDA Pharmacology Review; cited from earlier work

Which “testosterone biosynthesis IC50” value [1] does the source give for C[C@]12CC[C@H](O)CC1=CC[C@@H]1[C@@H]2CC[C@]2(C)C(c3cccnc3)=CC[C@@H]12 [Abiraterone, abiraterone, reference compound] here?
Its value is “no dose response”.

What about the IC50 [2] of the same compound?
The IC50 was 3 nM.
